No constants are given. Whether binding was seen depends on the method and setting. Binding seen in cells or lysates may run through a third protein. Some binding calls cover weakened binding; strength is not graded here.
Biological target: T1, 15-lipoxygenase-2 (rat (endogenous in PASMCs)) (UniProt Q8K4F2)
T1 sequence: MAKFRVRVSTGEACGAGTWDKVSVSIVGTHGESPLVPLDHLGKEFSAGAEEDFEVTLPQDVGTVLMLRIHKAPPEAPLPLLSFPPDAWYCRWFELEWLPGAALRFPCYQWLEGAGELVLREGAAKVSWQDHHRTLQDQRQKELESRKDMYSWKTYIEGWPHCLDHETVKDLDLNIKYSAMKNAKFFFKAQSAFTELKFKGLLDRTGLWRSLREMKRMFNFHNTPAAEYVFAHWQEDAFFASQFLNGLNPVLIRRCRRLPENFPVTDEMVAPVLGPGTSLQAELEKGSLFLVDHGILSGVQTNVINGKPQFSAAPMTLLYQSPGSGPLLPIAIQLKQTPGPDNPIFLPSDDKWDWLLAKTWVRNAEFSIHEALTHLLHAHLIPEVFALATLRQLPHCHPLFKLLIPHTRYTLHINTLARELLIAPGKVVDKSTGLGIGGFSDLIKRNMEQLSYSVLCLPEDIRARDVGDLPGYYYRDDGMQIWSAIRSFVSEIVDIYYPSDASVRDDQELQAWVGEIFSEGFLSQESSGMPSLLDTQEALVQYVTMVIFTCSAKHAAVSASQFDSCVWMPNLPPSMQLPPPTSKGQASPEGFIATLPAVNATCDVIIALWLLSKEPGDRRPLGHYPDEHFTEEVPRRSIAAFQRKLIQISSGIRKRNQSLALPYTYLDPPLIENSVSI
Experiment: co-IP; 100 ug PASMC lysate incubated with 2 ug mouse monoclonal 15-LO-2 antibody, then Protein A/G-Sepharose beads; immunoblot with rabbit anti-TERT; mouse IgG as negative control, 5% input

binding: binds
Substance: Telomerase reverse transcriptase (from UniProt Q673L6-1 1-1125)
